Experimental data: PubChem BioAssay AID1259308 (NCATS, 2017)
Screen: 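Genes whose loss raises luciferase production in HEK293 cells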 (primary screen). Cell system: human HEK293 embryonic kidney cells stably expressing firefly luciferase (HEK-CMV-Luc2-Hygro). Knock-down reagent: single siRNA against human genes, 0.8 pmol siRNA per well. Time to read-out: 72 h. Read-out: 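Luciferase light (ONE-Glo) measured on one replicate plate set and viability (CellTiter-Glo) on the other, scaled to a negative control siRNA, with robust z-scores and luciferase per cell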. Scale: total luciferase, z-score and total luciferase, % of control: higher = more reporter protein produced. Hit rule: 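Active when the median/MAD z-score for overall luciferase is greater than 3; a gene was taken forward for validation with new siRNAs if at least two of its three siRNAs passed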. Meaning of the calls: active = raised luciferase; inactive = no rise.
Here is one part, drawn at random, of about 59,000 reagents. About 1,510 of all reagents (2.6%) count as active. 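Calls use total luciferase alone and ignore viability, so some active siRNAs may act by altering cell number.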 The numbers tell different reagents against one gene apart. Not all columns of the deposit are shown.

Silencing of GCM1 #1 came out at: total luciferase, z-score 1.92; total luciferase, % of control 120; inactive.
For GCM1 #2, the entry reads total luciferase, z-score -0.735; total luciferase, % of control 67.3; inactive.
Against GCM1 #3, the entry reads total luciferase, z-score -0.759; total luciferase, % of control 66.8; inactive.
After knock-down of ZBED1 #1 the results were total luciferase, z-score 0.721; total luciferase, % of control 96.2; inactive.
With knock-down of ZBED1 #2 the results were total luciferase, z-score -1.68; total luciferase, % of control 48.5; inactive.
With knock-down of ZBED1 #3, the screen gave total luciferase, z-score 0.315; total luciferase, % of control 88.1; inactive.

Targets above whose target name starts with Z or z:
ZBED1 #1: total luciferase, z-score = 0.721; total luciferase, % of control = 96.2; activity call = inactive
ZBED1 #2: total luciferase, z-score = -1.68; total luciferase, % of control = 48.5; activity call = inactive
ZBED1 #3: total luciferase, z-score = 0.315; total luciferase, % of control = 88.1; activity call = inactive

More reagents follow:
For IL9R #1, the values are total luciferase, z-score -1.35; total luciferase, % of control 55.1; inactive.
IL9R #2 gave total luciferase, z-score -0.233; total luciferase, % of control 77.3; inactive.
Against IL9R #3, the values are total luciferase, z-score 0.822; total luciferase, % of control 98.2; inactive.
For P2RY6 #1, the entry reads total luciferase, z-score -1.4; total luciferase, % of control 54.1; inactive.
For P2RY6 #2, the entry reads total luciferase, z-score -1.3; total luciferase, % of control 56.1; inactive.
Silencing of P2RY6 #3 gave: total luciferase, z-score -0.7; total luciferase, % of control 68; inactive.
